Measurements: the supplement of paper PMC8728848
The list shows a part of the results.

Key:
Experiment in all cases: glycan array binding signal (z-score within array); higher = stronger binding
Conditions in all cases: glycan notation: IUPAC condensed, linker removed
[1] = target: Neu5Ac(a2-6)Gal(b1-4)GlcNAc(b1-3)Gal(b1-4)GlcNAc(b1-3)Gal(b1-4)GlcNAc(b1-2)Man(a1-3)[Neu5Ac(a2-6)Gal(b1-4)GlcNAc(b1-3)Gal(b1-4)GlcNAc(b1-3)Gal(b1-4)GlcNAc(b1-2)Man(a1-6)]GalNAc
In short: (§1)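 Columns mapping to the same glycan were averaged after glycan names were converted to IUPAC-condensed notation. The data come from 3228 arrays in the Consortium for Functional Glycomics database, limited to those with an available protein sequence. Binding is reported as a within-array Z-score averaged across arrays of one protein sequence and across linkers.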

[2] = target: Neu5Ac(a2-6)Gal(b1-4)GlcNAc(b1-3)Gal(b1-4)GlcNAc(b1-3)GalNAc
In short: as §1

[3] = target: Neu5Ac(a2-6)Gal(b1-4)GlcNAc(b1-3)Gal(b1-4)GlcNAc(b1-3)[Neu5Ac(a2-6)Gal(b1-4)GlcNAc(b1-3)Gal(b1-4)GlcNAc(b1-6)]GalNAc
In short: as §1

[4] = target: Neu5Ac(a2-6)Gal(b1-4)GlcNAc(b1-3)Gal(b1-4)GlcNAc(b1-6)[Gal(b1-3)]GalNAc
In short: as §1

[5] = target: Neu5Ac(a2-6)Gal(b1-4)GlcNAc(b1-3)Gal(b1-4)[Fuc(a1-3)]GlcNAc(b1-3)Gal(b1-4)[Fuc(a1-3)]GlcNAc
In short: as §1

[6] = target: Neu5Ac(a2-6)Gal(b1-4)GlcNAc(b1-3)GalNAc
In short: as §1

[7] = target: Neu5Ac(a2-6)Gal(b1-4)GlcNAc(b1-3)[Neu5Ac(a2-6)Gal(b1-4)GlcNAc(b1-6)]GalNAc
In short: as §1

[8] = target: Neu5Ac(a2-6)Gal(b1-4)GlcNAc(b1-6)GalNAc
In short: as §1

[9] = target: Neu5Ac(a2-6)Gal(b1-4)GlcNAc(b1-6)[Gal(b1-3)GlcNAc(b1-3)]Gal(b1-4)Glc
In short: as §1

[10] = target: Neu5Ac(a2-6)Gal(b1-4)GlcNAc(b1-6)[Gal(b1-3)]GalNAc
In short: as §1

[11] = target: Neu5Ac(a2-6)Gal(b1-4)GlcNAc6S
In short: as §1

Neu5Ac(a2-6)GalNAc = target: Neu5Ac(a2-6)GalNAc
In short: as §1

[12] = target: Neu5Ac(a2-6)GalNAc(b1-4)GlcNAc
In short: as §1

[13] = target: Neu5Ac(a2-6)GalNAc(b1-4)GlcNAc6S
In short: as §1

[14] = target: Neu5Ac(a2-6)GlcNAc(b1-4)GlcNAc
In short: as §1

[15] = target: Neu5Ac(a2-6)GlcNAc(b1-4)GlcNAc(b1-4)GlcNAc
In short: as §1

Neu5Ac(a2-8)Neu5Ac = target: Neu5Ac(a2-8)Neu5Ac
In short: as §1

[16] = target: Neu5Ac(a2-8)Neu5Ac(a2-3)Gal(b1-3)GalNAc(b1-4)[Neu5Ac(a2-3)]Gal(b1-4)Glc
In short: as §1

[17] = target: Neu5Ac(a2-8)Neu5Ac(a2-3)Gal(b1-3)GalNAc(b1-4)[Neu5Ac(a2-8)Neu5Ac(a2-3)]Gal(b1-4)Glc
In short: as §1

[18] = target: Neu5Ac(a2-8)Neu5Ac(a2-3)Gal(b1-4)Glc
In short: as §1

[19] = target: Neu5Ac(a2-8)Neu5Ac(a2-3)Gal(b1-4)GlcNAc
In short: as §1

[20] = target: Neu5Ac(a2-8)Neu5Ac(a2-3)[Gal(b1-3)GalNAc(b1-4)]Gal(b1-4)Glc
In short: as §1

[21] = target: Neu5Ac(a2-8)Neu5Ac(a2-3)[GalNAc(b1-4)]Gal(b1-4)Glc
In short: as §1

[22] = target: Neu5Ac(a2-8)Neu5Ac(a2-8)Neu5Ac
In short: as §1

[23] = target: Neu5Ac(a2-8)Neu5Ac(a2-8)Neu5Ac(a2-3)Gal(b1-4)Glc
In short: as §1

[24] = target: Neu5Ac(a2-8)Neu5Ac(a2-8)Neu5Ac(a2-3)[Gal(b1-3)GalNAc(b1-4)]Gal(b1-4)Glc
In short: as §1

[25] = target: Neu5Ac(a2-8)Neu5Ac(a2-8)Neu5Ac(a2-3)[GalNAc(b1-4)]Gal(b1-4)Glc
In short: as §1

[26] = target: Neu5Ac(a2-8)Neu5Ac(a2-8)Neu5Ac(a2-8)Neu5Ac(a2-3)[GalNAc(b1-4)]Gal(b1-4)Glc
In short: as §1

[27] = target: Neu5Ac(a2-8)Neu5Gc(a2-3)Gal(b1-4)GlcNAc
In short: as §1

[28] = target: Neu5Ac(b2-6)Gal(b1-4)GlcNAc
In short: as §1

Neu5Ac(b2-6)GalNAc = target: Neu5Ac(b2-6)GalNAc
In short: as §1

[29] = target: Neu5Ac9Ac(a2-3)Gal(b1-4)GlcNAc
In short: as §1

[30] = target: Neu5Ac9Ac(a2-6)Gal(b1-4)GlcNAc
In short: as §1

[31] = target: Neu5Gc(a2-3)Gal(b1-3)GlcNAc
In short: as §1

[32] = target: Neu5Gc(a2-3)Gal(b1-3)[Fuc(a1-4)]GlcNAc
In short: as §1

Neu5Gc(a2-3)Gal(b1-4)Glc = target: Neu5Gc(a2-3)Gal(b1-4)Glc
In short: as §1

[33] = target: Neu5Gc(a2-3)Gal(b1-4)GlcNAc
In short: as §1

[34] = target: Neu5Gc(a2-3)Gal(b1-4)GlcNAc(b1-3)Gal(b1-4)GlcNAc(b1-2)Man(a1-3)[Neu5Gc(a2-3)Gal(b1-4)GlcNAc(b1-3)Gal(b1-4)GlcNAc(b1-2)Man(a1-6)]Man(b1-4)GlcNAc(b1-4)GlcNAc
In short: as §1

[35] = target: Neu5Gc(a2-3)Gal(b1-4)[Fuc(a1-3)]GlcNAc
In short: as §1

[36] = target: Neu5Gc(a2-6)Gal(b1-4)GlcNAc
In short: as §1

Neu5Gc(a2-6)GalNAc = target: Neu5Gc(a2-6)GalNAc
In short: as §1

[37] = target: Neu5Gc(a2-8)Neu5Ac(a2-3)Gal(b1-4)GlcNAc
In short: as §1

[38] = target: Neu5Gc(a2-8)Neu5Gc(a2-3)Gal(b1-4)GlcNAc
In short: as §1

[39] = target: Neu5Gc(a2-8)Neu5Gc(a2-3)Gal(b1-4)GlcNAc(b1-3)Gal(b1-4)GlcNAc
In short: as §1

[40] = target: Neu5Gc(a2-8)Neu5Gc(a2-6)Gal(b1-4)GlcNAc
In short: as §1

[41] = target: Neu5Gc(b2-6)Gal(b1-4)GlcNAc
In short: as §1

B1: CD4 (Rattus norvegicus), P05540 (protein)
chain: MCRGFSFRHLLPLLLLQLSKLLVVTQGSTSITAYKSEGESAEFSFPLNLGEESLQGELRWKAEKAPSSQSWITFSLKNQKVSVQKSTSNPKFQLSETLPLTLQIPQVSLQFAGSGNLTLTLDRGILYQEVNLVVMKVTQPDSNTLTCEVMGPTSPKMRLILKQENQEARVSRQEKVIQVQAPEAGVWQCLLSEGEEVKMDSKIQVLSKGLNSGGGSGGGTGGGDLAPQMLRELQETNAALQDVRELLRQQVKEITFLKNTVMECDACGLDRNLPPLAPLGPHPETLVKVKDAEDQLGARVGYIELDLNSGKILESFRPEERFPMMSTFKVLLCGAVLSRIDAGQEQLGRRIHYSQNDLVEYSPVTEKHLTDGMTVRELCSAAITMSDNTAANLLLTTIGGPKELTAFLHNMGDHVTRLDRWEPELNEAIPNDERDTTMPVAMATTLRKLLTGELLTLASRQQLIDWMEADKVAGPLLRSALPAGWFIADKSGAGERGSRGIIAALGPDGKPSRIVVIYTTGSQATMDERNRQIAEIGASLIKHW
glycan array binding signal (z-score) [1]: 0.563
glycan array binding signal (z-score) [2]: -0.886
glycan array binding signal (z-score) [3]: -1.11
glycan array binding signal (z-score) [4]: -0.127
glycan array binding signal (z-score) [5]: 1.64
glycan array binding signal (z-score) [6]: 1.25
glycan array binding signal (z-score) [7]: 0.831
glycan array binding signal (z-score) [8]: -1.36
glycan array binding signal (z-score) [9]: 0.644
glycan array binding signal (z-score) [10]: 0.934
glycan array binding signal (z-score) [11]: 0.111
glycan array binding signal (z-score) (Neu5Ac(a2-6)GalNAc): -0.467
glycan array binding signal (z-score) [12]: 0.314
glycan array binding signal (z-score) [13]: 0.186
glycan array binding signal (z-score) [14]: -1.34
glycan array binding signal (z-score) [15]: 0.713
glycan array binding signal (z-score) (Neu5Ac(a2-8)Neu5Ac): -0.643
glycan array binding signal (z-score) [16]: -0.553
glycan array binding signal (z-score) [17]: -0.666
glycan array binding signal (z-score) [18]: -0.183
glycan array binding signal (z-score) [19]: 0.265
glycan array binding signal (z-score) [20]: -0.287
glycan array binding signal (z-score) [21]: -0.886
glycan array binding signal (z-score) [22]: -0.62
glycan array binding signal (z-score) [23]: 0.827
glycan array binding signal (z-score) [24]: 0.105
glycan array binding signal (z-score) [25]: 0.35
glycan array binding signal (z-score) [26]: -0.75
glycan array binding signal (z-score) [27]: 0.424
glycan array binding signal (z-score) [28]: -0.404
glycan array binding signal (z-score) (Neu5Ac(b2-6)GalNAc): -0.358
glycan array binding signal (z-score) [29]: -0.078
glycan array binding signal (z-score) [30]: 0.028
glycan array binding signal (z-score) [31]: 0.459
glycan array binding signal (z-score) [32]: -0.454
glycan array binding signal (z-score) (Neu5Gc(a2-3)Gal(b1-4)Glc): -0.927
glycan array binding signal (z-score) [33]: 0.631
glycan array binding signal (z-score) [34]: 0.987
glycan array binding signal (z-score) [35]: 0.189
glycan array binding signal (z-score) [36]: -0.014
glycan array binding signal (z-score) (Neu5Gc(a2-6)GalNAc): -0.385
glycan array binding signal (z-score) [37]: -0.129
glycan array binding signal (z-score) [38]: 0.026
glycan array binding signal (z-score) [39]: -0.56
glycan array binding signal (z-score) [40]: -0.341
glycan array binding signal (z-score) [41]: -0.128
